Measured values taken from patent publication CN101605906A.
These are yes or no findings as the source states them, for the method shown. Some entries that bind do so weakly or less than the wild type. Where a sequence is shown, tags or fusion partners need not be part of it. Each block holds one binder with its values, some of them ahead of it.

Key:
重组的带myc标签的CD70 (human) [1] = target: T1, 重组的带myc标签的CD70 (human) (UniProt P32970); experiment: ELISA, myc-tagged CD70 coated on plate, antibody from 1 ug/ml in 1:2 dilutions
T1 sequence: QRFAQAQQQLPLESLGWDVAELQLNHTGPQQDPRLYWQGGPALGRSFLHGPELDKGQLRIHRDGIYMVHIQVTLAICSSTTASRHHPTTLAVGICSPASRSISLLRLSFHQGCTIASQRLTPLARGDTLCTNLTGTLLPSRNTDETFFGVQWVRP

重组的带myc标签的CD70 (human) [2] = target: T1, 重组的带myc标签的CD70 (human); experiment: ELISA, legend of Fig. 16 (antibodies named in paragraph 887)

binding (重组的带myc标签的CD70 (human) [1]): binds | binding (重组的带myc标签的CD70 (human) [2]): binds
B1: 抗-CD70人类单克隆抗体8B5 (antibody, V domains shown)
VH: QVQLVESGGGVVQPGRSLRLSCATSGFTFSDYGMHWVRQAPGKGLEWVAVIWYDGSNKYYADSVKGRFTISRDNSKKTLSLQMNSLRAEDTAVYYCARDSIMVRGDYWGQGTLVTVSS
VL: DIQMTQSPSSLSASVGDRVTITCRASQGISSWLAWYQQKPEKAPKSLIYAASSLQSGVPSRFSGSGSGTDFTLTISSLQPEDFATYYCQQYNSYPLTFGGGTKVEIK

binding (重组的带myc标签的CD70 (human) [1]): binds | binding (重组的带myc标签的CD70 (human) [2]): binds
B2: 抗-CD70人类单克隆抗体10B4 (antibody, V domains shown)
VH: QIQLVESGGGVVQPGRSLRLSCAASGFTFGYYAMHWVRQAPGKGLEWVAVISYDGSIKYYADSVKGRFTISRDNSKNTLYLQMNSLRAEDTAVYYCAREGPYSNYLDYWGQGTLVTVSS
VL: AIQLTQSPSSLSASVGDRVTITCRASQGISSALAWYQQKPGKAPKFLIYDASSLESGVPSRFSGSGSGTDFTLTISSLQPEDFATYYCQQFNSYPFTFGPGTKVDIK
